Reference: patent publication US20250084409A1, “COMPOSITIONS AND METHODS FOR CAPPING RNAS” (Verve Therapeutics, Inc., priority 2022, published 2025)

Test system: dsRNA
Test: % dsRNA in mRNA samples (sandwich ELISA)
Settings: for amount by which dsRNA content of 5231 is lower than that of this analog: 5231 = 0.03%

Structure (SMILES)	amount by which dsRNA content of 5231 is lower than that of this analog	% dsRNA (mRNA made with the analog, FIG. 13)
COC1C(OP([O-])(=S)OCC2OC(n3cnc4c(=O)[nH]c(N)nc43)C(O)C2O)C(COP(=O)(O)OP(=O)(O)OP(=O)(O)OCC2OC(n3c[n+](C)c4c(=O)[nH]c(N)nc43)C(O)C2O)OC1n1cnc2c(N)ncnc21 (stereo not drawn) [1007a, m^7G(ppp) Am(ps)G]	~0.03%	
COC1C(OP(=O)(O)OCC2OC(n3cnc4c(=O)[nH]c(N)nc43)C(O)C2O)C(COP(=O)(O)OP(=O)([O-])OP(=O)(O)OCC2OC(n3c[n+](Cc4ccc(Cl)cc4)c4c(=O)[nH]c(N)nc43)C(O)C2O)OC1n1cnc2c(N)ncnc21 (stereo not drawn) [compound 5231, 4-Cl-Bn7G(ppp) Am(p)G]		0.03%
COC1C(O[P@@]([O-])(=S)OCC2OC(n3cnc4c(=O)[nH]c(N)nc43)C(O)C2O)C(COP(=O)(O)OP(=O)(O)OP(=O)(O)OCC2OC(n3c[n+](C)c4c(=O)[nH]c(N)nc43)C(O)C2O)OC1n1cnc2c(N)ncnc21 (stereo partly drawn) [1007a_D1, m^7G(ppp) Am(ps)G]	about 0.01%	
